In publication doi:10.1101/2024.01.10.574961 one finds binding data, which are given here for two molecules.

One test deals with T1, GST-Tea4 (S. pombe) (UniProt O60132).
T1 sequence: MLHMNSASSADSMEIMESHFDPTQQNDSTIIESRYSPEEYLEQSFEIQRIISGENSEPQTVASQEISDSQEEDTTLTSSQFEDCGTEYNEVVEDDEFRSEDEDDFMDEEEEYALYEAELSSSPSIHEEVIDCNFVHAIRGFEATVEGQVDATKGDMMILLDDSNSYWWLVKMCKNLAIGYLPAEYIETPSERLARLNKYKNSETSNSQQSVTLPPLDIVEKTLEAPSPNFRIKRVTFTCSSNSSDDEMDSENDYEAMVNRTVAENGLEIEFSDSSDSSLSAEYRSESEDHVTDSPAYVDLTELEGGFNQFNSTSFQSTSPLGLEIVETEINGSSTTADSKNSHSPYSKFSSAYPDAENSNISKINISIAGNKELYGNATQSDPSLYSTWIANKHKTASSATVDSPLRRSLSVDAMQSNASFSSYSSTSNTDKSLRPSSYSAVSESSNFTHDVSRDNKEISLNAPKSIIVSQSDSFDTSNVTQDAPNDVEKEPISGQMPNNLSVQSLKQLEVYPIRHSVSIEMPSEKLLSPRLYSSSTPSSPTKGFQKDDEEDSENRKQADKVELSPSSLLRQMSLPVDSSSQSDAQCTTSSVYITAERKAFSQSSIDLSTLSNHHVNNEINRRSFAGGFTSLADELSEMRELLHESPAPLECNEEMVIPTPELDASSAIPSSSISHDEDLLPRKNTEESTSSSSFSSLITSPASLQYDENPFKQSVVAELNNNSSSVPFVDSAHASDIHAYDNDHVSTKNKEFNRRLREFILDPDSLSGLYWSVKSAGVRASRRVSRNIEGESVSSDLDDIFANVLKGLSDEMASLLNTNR
The experiment in a line: pull-down.

The target in another test is T2, Tea1-GFP (S. pombe) (UniProt P87061).
T2 sequence: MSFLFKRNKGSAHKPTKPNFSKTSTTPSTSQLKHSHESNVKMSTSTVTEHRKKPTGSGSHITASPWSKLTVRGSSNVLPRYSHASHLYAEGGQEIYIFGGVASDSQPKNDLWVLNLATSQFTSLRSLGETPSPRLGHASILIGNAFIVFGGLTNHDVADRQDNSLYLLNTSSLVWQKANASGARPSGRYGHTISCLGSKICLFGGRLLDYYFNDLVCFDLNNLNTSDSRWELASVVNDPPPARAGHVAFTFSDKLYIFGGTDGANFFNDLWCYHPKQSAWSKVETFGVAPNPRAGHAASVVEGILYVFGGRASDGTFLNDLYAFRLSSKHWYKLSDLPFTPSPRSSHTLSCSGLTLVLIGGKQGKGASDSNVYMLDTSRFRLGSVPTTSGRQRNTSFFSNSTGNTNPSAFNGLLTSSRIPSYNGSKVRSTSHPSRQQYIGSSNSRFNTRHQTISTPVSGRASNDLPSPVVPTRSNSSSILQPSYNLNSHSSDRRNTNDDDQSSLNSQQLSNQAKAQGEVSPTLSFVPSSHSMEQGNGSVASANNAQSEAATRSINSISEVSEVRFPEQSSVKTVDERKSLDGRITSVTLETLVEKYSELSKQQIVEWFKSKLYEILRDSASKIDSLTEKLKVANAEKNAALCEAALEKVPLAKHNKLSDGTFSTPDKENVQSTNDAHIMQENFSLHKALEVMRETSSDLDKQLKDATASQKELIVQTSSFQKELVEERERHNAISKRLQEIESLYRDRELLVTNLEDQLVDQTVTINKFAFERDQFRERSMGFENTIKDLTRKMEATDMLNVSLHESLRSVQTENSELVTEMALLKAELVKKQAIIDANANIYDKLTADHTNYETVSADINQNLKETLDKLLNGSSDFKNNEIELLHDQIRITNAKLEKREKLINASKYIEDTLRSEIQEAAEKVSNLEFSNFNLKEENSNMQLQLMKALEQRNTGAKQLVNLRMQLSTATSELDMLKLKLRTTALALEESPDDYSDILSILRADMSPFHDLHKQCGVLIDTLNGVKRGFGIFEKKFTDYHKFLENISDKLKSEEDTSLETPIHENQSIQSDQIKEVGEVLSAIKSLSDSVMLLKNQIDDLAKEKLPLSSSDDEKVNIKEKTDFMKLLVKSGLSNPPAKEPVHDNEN
Nature of the test: co-IP.

Another test concerns the target T3, Tea4-GFP (S. pombe) (UniProt O60132).
T3 sequence: T1 sequence
The experiment in a line: co-IP.

The target of another test is T4, GST-Rgf1 (S. pombe) (UniProt Q9Y7U6).
T4 sequence: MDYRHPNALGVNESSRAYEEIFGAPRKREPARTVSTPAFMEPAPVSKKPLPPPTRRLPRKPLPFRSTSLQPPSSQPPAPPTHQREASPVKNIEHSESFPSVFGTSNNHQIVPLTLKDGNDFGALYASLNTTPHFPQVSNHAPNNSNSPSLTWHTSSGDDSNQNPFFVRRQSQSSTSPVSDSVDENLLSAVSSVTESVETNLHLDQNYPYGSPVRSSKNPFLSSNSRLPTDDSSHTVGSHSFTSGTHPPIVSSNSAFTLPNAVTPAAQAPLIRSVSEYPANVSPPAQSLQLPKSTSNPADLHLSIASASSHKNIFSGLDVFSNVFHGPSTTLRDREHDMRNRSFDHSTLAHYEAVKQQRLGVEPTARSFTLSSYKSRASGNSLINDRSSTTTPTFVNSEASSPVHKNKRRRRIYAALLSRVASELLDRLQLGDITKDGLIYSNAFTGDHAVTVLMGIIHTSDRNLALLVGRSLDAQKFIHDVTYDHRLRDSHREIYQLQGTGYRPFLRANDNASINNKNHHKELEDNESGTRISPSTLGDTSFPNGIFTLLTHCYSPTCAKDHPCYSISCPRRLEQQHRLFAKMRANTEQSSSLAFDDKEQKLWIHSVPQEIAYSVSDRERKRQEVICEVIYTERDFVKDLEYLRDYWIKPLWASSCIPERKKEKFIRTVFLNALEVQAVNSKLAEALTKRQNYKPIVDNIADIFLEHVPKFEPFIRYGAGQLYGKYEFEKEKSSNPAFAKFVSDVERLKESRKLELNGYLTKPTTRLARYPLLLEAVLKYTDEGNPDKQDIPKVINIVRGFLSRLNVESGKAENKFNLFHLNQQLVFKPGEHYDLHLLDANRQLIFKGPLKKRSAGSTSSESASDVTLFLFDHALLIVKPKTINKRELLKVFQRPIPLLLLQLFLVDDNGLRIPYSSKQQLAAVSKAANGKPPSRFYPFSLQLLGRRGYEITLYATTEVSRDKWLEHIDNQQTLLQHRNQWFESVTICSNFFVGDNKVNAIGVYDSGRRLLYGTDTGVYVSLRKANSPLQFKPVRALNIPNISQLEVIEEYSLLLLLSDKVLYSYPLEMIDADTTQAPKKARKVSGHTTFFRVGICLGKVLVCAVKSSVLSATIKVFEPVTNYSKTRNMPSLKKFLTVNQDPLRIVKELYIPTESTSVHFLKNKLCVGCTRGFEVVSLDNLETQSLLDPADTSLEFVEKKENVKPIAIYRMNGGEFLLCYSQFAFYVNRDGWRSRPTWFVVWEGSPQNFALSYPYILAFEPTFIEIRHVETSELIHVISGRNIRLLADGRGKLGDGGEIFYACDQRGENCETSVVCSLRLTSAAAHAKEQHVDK
The experiment in a line: pull-down.

Results are given in words; binding and its absence hold for the method and conditions named. In cells and extracts the contact can be indirect. Some binding calls cover weakened binding; strength is not graded here. Sequences can lack the tags named with a protein.

B1: Rgf1-HA (protein, UniProt Q9Y7U6 1-1334)
chain: T4 sequence
On to B1, for which the binding entry is recorded as “binds” in the test with GST-Tea4 (S. pombe), “no binding” in the test with Tea1-GFP (S. pombe) and “binds” in the test with Tea4-GFP (S. pombe).

B2: Tea4-GFP (protein, UniProt O60132 1-821)
chain: T1 sequence
Regarding B2, in the test with GST-Rgf1 (S. pombe), the binding result was “binds”.
